Experimental data: PubChem BioAssay AID1259308 (NCATS, 2017)

Screen: 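Knock-downs that increase output of a recombinant reporter protein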 (primary screen)
System: human HEK293 embryonic kidney cells stably expressing firefly luciferase (HEK-CMV-Luc2-Hygro)
Reagents: single siRNA against human genes, 0.8 pmol siRNA per well
Time to read-out: 72 h
Measurement: 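Luciferase light (ONE-Glo) measured on one replicate plate set and viability (CellTiter-Glo) on the other, scaled to a negative control siRNA, with robust z-scores and luciferase per cell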
Reading the numbers: total luciferase, z-score and total luciferase, % of control: higher = more reporter protein produced; luciferase per cell, z-score: higher = more reporter output per viable cell; viable cells, % of control: higher = more viable cells
Rule for the call: 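Active when the median/MAD z-score for overall luciferase is greater than 3; a gene was taken forward for validation with new siRNAs if at least two of its three siRNAs passed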
Meaning of the calls: active = raised luciferase; inactive = no rise
This is one part, drawn at random, of about 59,000 deposited reagents. Over the whole deposit, about 1,510 (2.6%) got an active call. 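Calls use total luciferase alone and ignore viability, so some active siRNAs may act by altering cell number.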 A number with no mark means an inactive call. Reagents against one gene are numbered here. No sequences are given here.

Target gene	reagent no.	total luciferase, z-score	total luciferase, % of control	luciferase per cell, z-score	viable cells, % of control
HFM1	1	-0.0217	81.5	-0.188	95.6
HFM1	2	-0.103	79.8	-0.102	91.6
HFM1	3	0.47	91.2	0.654	85.8
AGPAT5	1	-0.563	70.7	-1.03	104
AGPAT5	2	-0.972	62.6	-1.49	103
AGPAT5	3	2.36	129	2.11	82.7
WDR76	1	0.996	102	0.797	92.1
WDR76	2	-0.428	73.4	-1.31	116
WDR76	3	0.746	96.7	0.772	88.2

Continued (2 carried over from the part before).
Target gene	reagent no.	total luciferase, z-score	total luciferase, % of control	luciferase per cell, z-score	viable cells, % of control
WDR76	2	-0.428	73.4	-1.31	116
WDR76	3	0.746	96.7	0.772	88.2
NCMAP	1	-1.26	56.7	-1.62	97.1
NCMAP	2	-0.537	71.2	0.969	61.6
NCMAP	3	0.614	94.1	0.158	101
CILP	1	1.68	115	2.27	70.9
CILP	2	-0.284	76.2	-0.0323	85.9
CILP	3	0.48	91.4	-0.154	106
SNHG32	1	-1.04	61.2	-0.633	80.7
SNHG32	2	3.35 (active)	149	2.16	94
SNHG32	3	2.3	128	1.57	94.2
SAP30L	1	-0.559	70.8	-0.409	88.1
SAP30L	2	0.00214	81.9	0.0872	89.5
SAP30L	3	0.69	95.6	0.908	84.1
DDX1	1	-0.676	68.4	-1.26	107
DDX1	2	-0.0554	80.8	-0.736	110
DDX1	3	-0.172	78.5	-0.518	100
